# According to patent publication US11420922B2, “Hydroxylated tropolone inhibitors of nucleotidyl transferases in herpesvirus and Hepatitis B and uses therefor” (Saint Louis University, priority 2015, dated 2022):
# For part of these data: The name of at least one read-out is uncertain. For part of these data: For at least one compound, name, drawing or mass did not settle the structure. Some of these results come from one statement about several compounds together.
# Tests used:
# HSV = assay: Anti-HSV SAR summary, HSV type not separated; format: cell-based, herpes simplex virus
# Method: Compounds to be screened were diluted in PBS supplemented to contain 2% newborn calf serum and 1% glutamine, and added in 100 μL volume to confluent cell monolayers in 24-well cluster plates. Immediately thereafter HSV-1 and HSV-2, diluted in the supplemented PBS medium, were added to the wells in 50 μl volume such that the final concentration of compound was 50 μM and 5 μM and the multiplicity of infection was 0.1. The plates were incubated at 37° C. for 1 hour and then virus-containing inoculum was removed and the wells were washed once in PBS. Compounds, diluted to 50 μM and 5 μM in DMEM supplemented to contain 2% newborn calf serum and 1% each penicillin/streptomycin, were added at 0.5 mL/well. Plates were incubated at 37° C. an additional 23 hr, and then the plates were visually inspected through a phase contrast microscope for cytopathic effect, and for toxic effect. […] The entire contents of each well were collected by scraping. Samples were frozen at −80° C., and then subsequently thawed, sonicated, and infectious virus titer was determined by standard plaque assay on Vero cell monolayers. Because the compounds were dissolved at 10 mM in 100% DMSO, equivalent dilutions of DMSO were added to additional wells as a control for effects of the diluent. Each experiment was repeated once. EC50 values were determined as above except that serial dilutions of the compound to be tested were prepared starting at 50 μM. The inhibitory values were calculated by non-linear curve-fitting in GraphPad Prism.
# A series of over 20 synthetic αHTs were synthesized and tested to both confirm the initial SAR, and to provide leads for further optimization pursuits (FIG. 5). […] Specifically, biphenyl-containing molecules #118 and 115 inhibit HSV replication by up to 4 log10 at 200 nM. The increased potency over close analogs #111 and 113 confirmed the importance of added lipophilicity.
# human RNaseH1 = molecular target: T1, human RNaseH1 (Homo sapiens, UniProt O60930); assay: Biochemical inhibition of human RNaseH1 (oligonucleotide-directed RNA cleavage assay); parameters: key to the marks not given beside the values; conditions: compounds at 60, 20, or 10 μM; key to symbols not given
# T1 construct: hexahistidine; made in house; host or cells: E. coli
# T1 sequence (O60930 1-286): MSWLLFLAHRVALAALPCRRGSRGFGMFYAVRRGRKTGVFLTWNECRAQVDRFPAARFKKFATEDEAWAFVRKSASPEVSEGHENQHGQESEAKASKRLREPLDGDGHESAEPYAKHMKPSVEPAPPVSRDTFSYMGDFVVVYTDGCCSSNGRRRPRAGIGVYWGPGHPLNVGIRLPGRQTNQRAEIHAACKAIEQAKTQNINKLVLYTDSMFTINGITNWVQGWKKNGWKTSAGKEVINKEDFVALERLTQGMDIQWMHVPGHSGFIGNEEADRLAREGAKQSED
# HSV-1 = assay: Anti-HSV-1 replication assay in Vero cells, titers by plaque assay; format: cell-based, herpes simplex virus 1; conditions: moi 0.1, 24 h, vs DMSO, +/− are qualitative, key not given
# Method: Vero cells were maintained in Dulbecco's modified Eagle's medium (DMEM) containing 3% newborn calf serum, 3% bovine growth serum, 2 mM L-glutamine and 100 IU/mL penicillin and 0.1 mg/mL streptomycin (P/S). HSV-1 #6 and HSV-2 #1 are de-identified clinical isolates from the Saint Louis University Hospital. Stocks were prepared after a single passage in cell culture and were titered by standard plaque assay (Knipe and Spang, 1982). Wild-type HSV-2 used in FIG. 3 was laboratory strain 333. […] Virus stocks were grown and titered on Vero cells (Morrison and Knipe, 1996).
# Compounds to be screened were diluted in PBS supplemented to contain 2% newborn calf serum and 1% glutamine, and added in 100 μL volume to confluent cell monolayers in 24-well cluster plates. Immediately thereafter HSV-1 and HSV-2, diluted in the supplemented PBS medium, were added to the wells in 50 μl volume such that the final concentration of compound was 50 μM and 5 μM and the multiplicity of infection was 0.1. The plates were incubated at 37° C. for 1 hour and then virus-containing inoculum was removed and the wells were washed once in PBS. […] Samples were frozen at −80° C., and then subsequently thawed, sonicated, and infectious virus titer was determined by standard plaque assay on Vero cell monolayers. […] The inhibitory values were calculated by non-linear curve-fitting in GraphPad Prism.
# HSV-2 = assay: Anti-HSV-2 replication assay in Vero cells, titers by plaque assay; format: cell-based, herpes simplex virus 2; conditions: moi 0.1, 24 h, vs DMSO, +/− are qualitative, key not given
smiles,measurement,setting,value
Cc1cc(O)c(=O)c(O)cc1-c1ccc(-c2ccccc2)cc1 [Compound 115],inhibition of HSV replication at 200 nM,HSV,up to 4 log10
Cc1cc(O)c(=O)c(O)cc1-c1ccccc1 [Compound 113],Anti-Human RNAseH1,human RNaseH1,++
same,"anti-HSV SAR group, in words","HSV; grouped by activity at 50, 5 and 0.5 μM",moderate inhibitors
Cc1cc(O)c(=O)c(O)cc1C(=O)c1ccc(-c2ccccc2)cc1 [Compound 118],inhibition of HSV replication at 200 nM,HSV,up to 4 log10
"Nc1nc2c(ncn2COCCO)c(=O)[nH]1 [ACV, Acyclovir, reference compound]",HSV-1 Log suppression 5 μM,HSV-1,3.61 log10
same,HSV-2 Log suppression 5 μM,HSV-2,2.88 log10
